The assay addresses T1, GRA38-6xHis (Toxoplasma gondii, UniProt A0A7J6JXD8).
T1 construct: gene TGRH88_051660; signal peptide (first 23 residues) removed; C-terminal 6xHis in pET-29b(+), codon-optimised, E. coli BL21; tag kept
Put plainly: malachite green phosphate release assay (PAP activity). The class given is biochemical. Particulars: read-out: % inhibition at 1 mM.

The chains behind the UniProt entries cited, without tags or fusion partners.
UniProt A0A7J6JXD8, entry or part of it: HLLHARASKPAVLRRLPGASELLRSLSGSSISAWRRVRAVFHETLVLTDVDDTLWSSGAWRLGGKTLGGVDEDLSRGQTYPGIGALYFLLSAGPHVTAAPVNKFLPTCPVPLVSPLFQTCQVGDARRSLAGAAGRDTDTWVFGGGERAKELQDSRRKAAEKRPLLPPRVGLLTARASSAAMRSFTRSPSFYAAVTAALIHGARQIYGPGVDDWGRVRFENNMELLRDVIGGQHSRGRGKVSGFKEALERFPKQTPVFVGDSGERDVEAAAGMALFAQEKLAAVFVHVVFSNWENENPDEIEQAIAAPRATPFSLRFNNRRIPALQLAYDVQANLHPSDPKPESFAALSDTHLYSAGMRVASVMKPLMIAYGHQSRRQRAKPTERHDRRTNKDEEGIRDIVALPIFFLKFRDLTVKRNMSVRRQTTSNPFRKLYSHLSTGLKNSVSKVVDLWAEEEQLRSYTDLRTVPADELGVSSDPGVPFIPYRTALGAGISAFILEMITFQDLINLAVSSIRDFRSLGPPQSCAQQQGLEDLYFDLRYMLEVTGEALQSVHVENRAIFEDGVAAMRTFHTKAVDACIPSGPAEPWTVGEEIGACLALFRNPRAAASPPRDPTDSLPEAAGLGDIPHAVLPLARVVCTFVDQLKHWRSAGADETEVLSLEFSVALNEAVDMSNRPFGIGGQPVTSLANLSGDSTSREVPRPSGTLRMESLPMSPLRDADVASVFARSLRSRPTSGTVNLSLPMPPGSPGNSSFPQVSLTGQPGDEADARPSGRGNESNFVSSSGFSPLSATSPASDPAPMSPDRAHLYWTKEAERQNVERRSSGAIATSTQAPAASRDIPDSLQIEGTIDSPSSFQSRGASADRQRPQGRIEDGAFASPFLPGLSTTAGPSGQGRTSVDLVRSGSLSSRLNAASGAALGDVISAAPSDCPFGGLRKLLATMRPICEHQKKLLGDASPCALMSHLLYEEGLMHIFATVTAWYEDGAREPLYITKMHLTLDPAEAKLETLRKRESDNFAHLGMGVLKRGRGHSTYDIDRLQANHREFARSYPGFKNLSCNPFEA

SMILES strings stand for the structures.

With `CC(C)NCC(O)COc1cccc2ccccc12` (stereo not shown) [propranolol], the inhibition at 1000 µM is about 29%.
